Measurements taken from PubChem BioAssay AID2417 (National Center for Advancing Translational Sciences (NCATS), 2010).
The whole screen tested about 140,000 compounds, of which about 4,300 (3.1%) were called active. The inconclusive results got no clear call from the source; some entries with a clear call stand among them for comparison.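 Rule for the calls: active = readout at or below -70, meaning at least 70% loss of cells showing the perinucleolar compartment, a nuclear body marking cancer cells; inconclusive = readout between -30 and a set limit; inactive = the rest.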

test: High Content Assay for Compounds that inhibit the Assembly of the Perinucleolar Compartment; conditions: PC3M PTB-GFP, PNC prevalence imaging, 16 h; at 10 µM; stronger effect = lower value;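 note: plate controls were DMSO wells for no effect and camptothecin positive control wells for full effect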
Outline: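 PC3M cells stably expressing PTB-GFP, 750–1000 cells/well, treated 16 h at 37 °C with compound (23 nl of library stock), in duplicate. After paraformaldehyde fixation and Hoechst stain, imaged at 20x; PNC prevalence scored by image analysis.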

Row | SMILES | activity change (PNC), negative = inhibition
1 | CN(C)c1ccc(/C=C2\CCCCC2=O)cc1 | inconclusive: -45.2%
2 | O=C(C(Cc1ccccc1)N1C(=O)C2C3CCC(C3)C2C1=O)N1CCCCC1 (configuration not stated) | inconclusive: -32.7%
3 | Cc1oc2c(c1C(=O)N1CCC(C)CC1)C(=O)c1ccccc1C2=O | inactive: -11.7%
4 | CCN(CC)S(=O)(=O)c1cc(NC(=O)CCCOc2ccc(C(C)=O)cc2)ccc1C | inactive: -4.26%
5 | CCOC(=O)c1nnc(-c2ccccc2)nc1Oc1ccc(Cl)cc1 | inconclusive: -72.2%
6 | CCNC(=O)COC(=O)c1csc2c1CCCC2 | inconclusive: -54.8%
7 | CC1CCN(C(C(=O)Nc2ccc(C(C)C)cc2)c2ccc3c(c2)OCO3)CC1 (configuration not stated) | inconclusive: -55.6%
8 | O=C(Nc1ccccc1SCC1CSc2nc3ccccc3c(=O)n21)c1cccc(Cl)c1 (configuration not stated) | inconclusive: -32.2%
9 | COc1ccc(C=NCC2COc3ccccc3O2)cc1OC (configuration not stated) | inactive: 49.1%
10 | Cc1cc(C(=O)N[C@H](c2ccccc2)[C@@]2(C)C[C@@H]2[C@@H](C)C(=O)Nc2ccc3ccccc3c2)no1 | inactive: 33.1%
11 | CC(C)c1cccc(C(C)C)c1NC(=O)Cn1c(=O)cnc2ccccc21 | inconclusive: -34.2%
12 | COc1cc(CCC(=O)N2CCN(S(=O)(=O)c3ccc(C)c(C)c3)CC2)cc(OC)c1OC | inactive: 5%
13 | CC(=O)Nc1nc2c(c3c1c(=O)oc1ccccc13)CCCCC2 | inconclusive: -47.9%
14 | COc1cccc(C2C(C(=O)c3cc4ccccc4o3)=C(O)C(=O)N2c2cc(C)on2)c1OC (configuration not stated) | inactive: 19.4%
15 | COc1cccc2sc(Nc3nc(-c4cc5ccccc5oc4=O)cs3)nc12 | active: -83.5%
16 | CC(C)=CCC(C)(C)C1OCCN1C(=O)Nc1ccccc1 (configuration not stated) | inconclusive: -41.8%
17 | O=C(Nc1nnc(C2CCCO2)s1)c1cccs1 (configuration not stated) | inconclusive: -36.3%
18 | COc1cc2c(C(=O)O)c(C)n(CC(C)C)c2c2ccccc12 | inconclusive: -46.7%
19 | Cc1csc(NC(=O)c2cc(C)oc2C)n1 | inactive: -11.3%
20 | CC(C)CC(COCc1cccc(Cl)c1)N1CCN(C(=O)c2cccc(C(F)(F)F)c2)CCC1=O (configuration not stated) | inconclusive: -52.4%
21 | COc1ccccc1CCNC(=O)c1ccc(C)o1 | inactive: 29.9%
22 | c1ccc(-c2cn3c(n2)-c2ccccc2C3)cc1 | inactive: 43.3%
23 | CCOC(=O)c1sc(NC(=S)NC(=O)C23CC4CC(CC(C4)C2)C3)cc1C | inactive: -7.98%

Row | SMILES | activity change (PNC), negative = inhibition
24 | CCOC(=O)CSc1nc(-c2ccccc2)nc2c1oc1ccccc12 | inactive: 7.02%
25 | O=C(O)C1CCCN1C(=O)c1cncc(Br)c1 (configuration not stated) | inactive: -13.1%
26 | CCC(=O)Nc1ccc(OC)cc1OC | inconclusive: -30.4%
27 | COc1cc2c(cc1C1NC(=S)NC(C)=C1C(=O)N(C)C)CCCC2 (configuration not stated) | inactive: 47%
28 | Cn1c(=O)c2c(nc(Br)n2CC(=O)C23CC4CC(CC(C4)C2)C3)n(C)c1=O | inconclusive: -61.5%
29 | O=C(NCc1cccnc1)c1cn(-c2ccccc2)nc1-c1cccs1 | active: -139%
30 | C(/C=C/c1ccccc1)=N/N1CCN(c2ccccc2)CC1 | inconclusive: -53.4%
31 | Cc1c(Cc2ccccc2)sc(N)c1C(N)=O | inactive: 30.7%
32 | CCc1c(C)sc(NC(=O)c2cc(C)on2)c1C#N | inactive: 33.7%
33 | O=C(Cn1c(=O)c2c(ncn2C2CCCC2)n(Cc2ccccc2)c1=O)N1CCc2ccccc21 | inconclusive: -30%
34 | CCOC(=O)c1sc(NCc2ccco2)c(-c2nc3ccccc3s2)c1N | inconclusive: -45.6%
35 | COc1cccc(C(=O)N/N=C/c2ccc(OC3CSC3)cc2)c1 | inconclusive: -31.5%
36 | COc1ccc2nc(N3C(=O)/C(=C/c4ccccc4)NC3=S)sc2c1 | inactive: 28.4%
37 | COc1ccc(-n2c(SCC(=O)NC3CCCCC3)nc3ccsc3c2=O)cc1 | inconclusive: -37%
38 | Cc1cccc(Nc2nc(-c3cccs3)cs2)n1 | active: -105%
39 | CCCc1cc(C(=O)Nc2cccc(C(C)=O)c2)no1 | inconclusive: -71.9%
40 | CS(=O)(=O)Nc1ccc(C(=O)NCCSC2CCCCC2)cc1 | inconclusive: -69%
41 | Cc1ccc(C2CC2C(=O)NNC(=S)Nc2cccc(Cl)c2)cc1 (configuration not stated) | inconclusive: -45.2%
42 | O=C(CSc1nnc(COc2cccc3ccccc23)o1)N1CCN(C(=O)c2ccco2)CC1 | inconclusive: -35.8%
43 | CC(C)Oc1ccc(C(=O)NCc2cccs2)cc1 | inactive: 17.8%
44 | COc1ccccc1OCc1nnc(SCCN2CCOCC2)o1 | inconclusive: -35%
45 | COc1ccc(CCn2c(C)cc(C(=O)CSc3nnnn3C)c2C)cc1 | inconclusive: -48.9%
46 | COc1ccc(C)cc1NC(=O)CSc1nnc(-c2ccccn2)n1Cc1ccco1 | inconclusive: -35.2%

Row | SMILES | activity change (PNC), negative = inhibition
47 | CCOC(=O)COc1c(OC)cc(Cl)cc1C1Nc2ccccc2C(=O)N1c1cccc(C)c1 (configuration not stated) | inconclusive: -40.9%
48 | CC(=O)Nc1nc(SCc2ccc(Cl)cc2Cl)n[nH]1 | inconclusive: -47.1%
49 | Brc1cccc(CNCc2cccs2)c1 | active: -88.8%
50 | O=C(C1CCCN(Cc2ccccc2)C1)N1CCCCC1 (configuration not stated) | inactive: 53.8%
51 | CCn1c(SCC#N)nc2c(c1=O)C1(CCCC1)Cc1ccccc1-2 | inconclusive: -63.7%
52 | Cc1nn(-c2ccccc2)c(Cl)c1C(=O)N(C)c1nc(-c2ccc(F)cc2)cs1 | inconclusive: -70.6%
53 | COc1cc(C(=O)Nc2ccc3c(c2)OCO3)ccc1-n1cnnn1 | inconclusive: -30.5%
54 | Cc1ccc(C2OCC3(CO2)COC(c2ccc(C)cc2)OC3)cc1 (configuration not stated) | inconclusive: -37.1%
55 | CCc1ccc(NCCC(=O)c2ccc(Br)cc2)cc1 | inactive: -28.4%
56 | Cn1c(SCC(=O)c2ccccc2)nnc1-c1cnccn1 | inconclusive: -34.1%
57 | N#Cc1cn(OCc2ccccc2)c(=O)[nH]c1=O | inconclusive: -33.6%
58 | CC(Cl)C(=O)NNc1cccc(Cl)n1 (configuration not stated) | inactive: 8.06%
59 | Cc1cc(C)cc(NC(=S)/N=C(\N)Nc2nc(C)c3ccccc3n2)c1 | inconclusive: -36.6%
60 | Cc1ccc(-c2csc3nnc(SCc4csc(C)n4)n23)cc1 | inconclusive: -55.7%
61 | Cn1c(=O)c2c(nc(Oc3ccc4ccccc4c3)n2C)n(C)c1=O | inactive: -8.15%
62 | COc1ccc(CCNC(=O)CSc2nc3ccccc3o2)cc1 | inconclusive: -31.9%
63 | CC1=CC(=O)N(c2cccc(C(F)(F)F)c2)C1c1ccc(Cl)cc1 (configuration not stated) | inactive: 14.7%
64 | Cc1ccc(-c2nn(CC(=O)Nc3ccc4c(c3)nc3n4CCOC3)c(=O)c3ccccc23)cc1 | inactive: 25.3%
65 | Cc1nn(-c2ccccc2)c(OC(=O)c2cccs2)c1S(=O)(=O)c1ccc([N+](=O)[O-])cc1 | inconclusive: -36.2%
66 | COc1cc(OC)cc(C(=O)NCCCN2CCN(CCCNC(=O)c3cc(OC)cc(OC)c3)CC2)c1 | inactive: 25.3%
67 | Cc1ccc(-n2nc3c(c2NC(=O)c2c(-c4ccccc4Cl)noc2C)CS(=O)(=O)C3)c(C)c1 | inconclusive: -31.6%
68 | O=C(Nc1cccn(Cc2ccc(F)cc2)c1=O)NC1CCCCC1 | inactive: 28.6%
69 | O=c1c(Cl)c(NCc2ccc(F)cc2)cnn1C12CC3CC(CC(C3)C1)C2 | inconclusive: -34.4%

Row | SMILES | activity change (PNC), negative = inhibition
70 | OCCN(CCO)c1ccc(C(c2ccccc2Cl)c2ccc(N(CCO)CCO)cc2Cl)c(Cl)c1 | inconclusive: -30.8%
71 | O=c1c2ccccc2cnn1-c1ccc(Br)cc1 | inconclusive: -38.8%
72 | O=C(N/N=C/c1cccc(O)c1)c1ccc(COc2ccc3c(c2)CCC3)o1 | inactive: 7.86%
73 | CCOC(=O)c1cccc(NC(=O)c2cnc3ccccc3n2)c1 | inactive: -11.7%
74 | Clc1ccc2c(c1)C(N1CCNCC1)=Nc1ccccc1O2 | inactive: -9.33%
75 | Cc1csc(NC(=O)C2CCCC2)n1 | inconclusive: -45.2%
76 | COC(=O)c1sccc1NC(=O)CSc1ccccc1NS(=O)(=O)c1ccc(Cl)cc1 | inactive: -26.1%
77 | CCCCCn1c(C(Cc2ccccc2)NC(C)=O)nc2ccccc21 (configuration not stated) | inconclusive: -55.8%
78 | Nc1nnc(SCc2ccc(F)cc2)n1-c1ccccc1 | inactive: -19.2%
79 | O=C(OCCCCN1C(=O)c2ccccc2C1=O)c1n[nH]c2ccccc12 | inconclusive: -68.8%
80 | CCc1ccccc1-n1c(SCC(=O)N2CCCC2)nnc1-c1ccccn1 | inactive: 1.31%
81 | CCOC(=O)C1C(=O)C=C(/C=C/c2ccc(N(C)C)cc2)CC1c1ccccc1 (configuration not stated) | inconclusive: -58.2%
82 | CCCCS(=O)(=O)NC1=NCN(Cc2ccco2)CN1 | inactive: -14.3%
83 | CC1=C(C(=O)N2CCOCC2)C(c2ccc(O)cc2)NC(=S)N1 (configuration not stated) | inactive: -1.7%
84 | Cc1ccc(CN2CCN(/N=C/c3ccc(C)s3)CC2)cc1 | inactive: 52.5%
85 | CC(=O)c1ccccc1OCCCN1CCCCC1 | inconclusive: -46.6%
86 | CCOC(=O)/C(C#N)=C/c1c[nH]c2ccccc12 | inconclusive: -42.4%
87 | Cc1ccc([N+](=O)[O-])cc1/C=N/Nc1nnnn1-c1ccccc1 | inconclusive: -42.1%
88 | N#C/C(=C\c1ccc(F)c(F)c1)C(=O)NC1CCCCC1 | inconclusive: -67.7%
89 | O=C(CSc1nccc(=O)[nH]1)Nc1ccc(F)c(Cl)c1 | inconclusive: -68.5%
90 | O=C1c2ccccc2C(=O)C1c1ccccc1 | inconclusive: -48.5%
91 | O=C(c1cccc(F)c1)N1CCc2ccccc21 | inconclusive: -51%
92 | COc1ccc(C(=O)Oc2ccc(C(C)=O)cc2)c(OC)c1 | active: -83%

5 records drawn at random from those above, as already listed:
Row | SMILES | activity change (PNC), negative = inhibition
49 | Brc1cccc(CNCc2cccs2)c1 | active: -88.8%
37 | COc1ccc(-n2c(SCC(=O)NC3CCCCC3)nc3ccsc3c2=O)cc1 | inconclusive: -37%
10 | Cc1cc(C(=O)N[C@H](c2ccccc2)[C@@]2(C)C[C@@H]2[C@@H](C)C(=O)Nc2ccc3ccccc3c2)no1 | inactive: 33.1%
62 | COc1ccc(CCNC(=O)CSc2nc3ccccc3o2)cc1 | inconclusive: -31.9%
67 | Cc1ccc(-n2nc3c(c2NC(=O)c2c(-c4ccccc4Cl)noc2C)CS(=O)(=O)C3)c(C)c1 | inconclusive: -31.6%
